Assay results published in the supplement of paper PMC10060354, “Discovery of a small molecule ligand of FRS2 that inhibits invasion and tumor growth” (Cellular Oncology, 2022).
Single values are uncertain, as repeats are few or missing.

Chains of the proteins cited; added tags and fusions are not shown. Lines headed by an entry give the natural chain unless they say otherwise; changes in a name come on top.
UniProt P23743: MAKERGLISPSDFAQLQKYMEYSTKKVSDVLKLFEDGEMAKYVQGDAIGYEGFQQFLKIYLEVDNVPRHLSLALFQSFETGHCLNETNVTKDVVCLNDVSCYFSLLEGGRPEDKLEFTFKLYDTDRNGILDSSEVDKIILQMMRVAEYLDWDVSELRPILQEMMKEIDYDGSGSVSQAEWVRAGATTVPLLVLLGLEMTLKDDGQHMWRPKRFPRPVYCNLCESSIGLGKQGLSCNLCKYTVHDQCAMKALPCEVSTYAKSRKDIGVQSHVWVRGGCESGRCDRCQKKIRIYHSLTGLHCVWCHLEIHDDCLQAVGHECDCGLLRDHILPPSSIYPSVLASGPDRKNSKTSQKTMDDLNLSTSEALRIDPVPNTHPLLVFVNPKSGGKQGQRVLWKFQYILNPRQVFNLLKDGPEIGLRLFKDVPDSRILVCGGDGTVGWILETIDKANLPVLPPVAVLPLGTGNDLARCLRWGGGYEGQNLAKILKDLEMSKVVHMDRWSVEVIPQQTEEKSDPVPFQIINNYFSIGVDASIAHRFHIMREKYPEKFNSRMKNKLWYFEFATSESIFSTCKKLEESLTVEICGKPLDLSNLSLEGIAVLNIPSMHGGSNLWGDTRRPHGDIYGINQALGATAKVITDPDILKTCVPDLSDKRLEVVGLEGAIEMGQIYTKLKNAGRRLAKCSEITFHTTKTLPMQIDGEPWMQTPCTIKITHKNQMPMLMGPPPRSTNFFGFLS
UniProt P50454: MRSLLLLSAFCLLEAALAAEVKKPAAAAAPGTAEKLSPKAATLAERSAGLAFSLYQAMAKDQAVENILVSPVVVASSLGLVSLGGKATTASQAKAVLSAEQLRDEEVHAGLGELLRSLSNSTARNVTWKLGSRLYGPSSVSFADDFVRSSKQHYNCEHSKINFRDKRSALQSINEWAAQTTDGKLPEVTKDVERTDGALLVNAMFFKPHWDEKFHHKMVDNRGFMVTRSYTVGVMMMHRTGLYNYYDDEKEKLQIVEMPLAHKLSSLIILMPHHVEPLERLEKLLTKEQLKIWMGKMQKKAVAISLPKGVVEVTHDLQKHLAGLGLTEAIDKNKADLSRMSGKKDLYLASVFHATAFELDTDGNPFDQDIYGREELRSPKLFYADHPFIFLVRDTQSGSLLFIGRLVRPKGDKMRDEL
UniProt Q9UBI6: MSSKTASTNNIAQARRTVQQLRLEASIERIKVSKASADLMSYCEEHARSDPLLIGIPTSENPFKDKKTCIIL
UniProt Q9NZD2: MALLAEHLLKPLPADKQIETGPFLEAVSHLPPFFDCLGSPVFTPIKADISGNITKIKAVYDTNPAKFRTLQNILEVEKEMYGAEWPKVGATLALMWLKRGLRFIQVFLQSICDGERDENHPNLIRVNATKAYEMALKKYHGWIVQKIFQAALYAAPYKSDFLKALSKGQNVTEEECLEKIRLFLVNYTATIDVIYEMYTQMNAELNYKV
UniProt Q96IU4: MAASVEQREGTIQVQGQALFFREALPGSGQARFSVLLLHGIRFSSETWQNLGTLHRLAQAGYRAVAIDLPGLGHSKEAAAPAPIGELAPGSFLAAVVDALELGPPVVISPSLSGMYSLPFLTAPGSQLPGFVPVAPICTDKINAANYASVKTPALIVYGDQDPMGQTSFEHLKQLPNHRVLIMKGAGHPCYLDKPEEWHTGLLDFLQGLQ
UniProt Q712K3: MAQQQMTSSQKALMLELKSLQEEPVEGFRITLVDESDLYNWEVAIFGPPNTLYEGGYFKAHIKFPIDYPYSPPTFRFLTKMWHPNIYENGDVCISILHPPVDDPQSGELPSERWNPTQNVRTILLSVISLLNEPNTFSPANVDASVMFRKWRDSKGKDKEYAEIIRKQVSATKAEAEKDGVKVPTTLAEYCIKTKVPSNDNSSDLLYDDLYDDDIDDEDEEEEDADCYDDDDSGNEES
UniProt Q6Y2X3: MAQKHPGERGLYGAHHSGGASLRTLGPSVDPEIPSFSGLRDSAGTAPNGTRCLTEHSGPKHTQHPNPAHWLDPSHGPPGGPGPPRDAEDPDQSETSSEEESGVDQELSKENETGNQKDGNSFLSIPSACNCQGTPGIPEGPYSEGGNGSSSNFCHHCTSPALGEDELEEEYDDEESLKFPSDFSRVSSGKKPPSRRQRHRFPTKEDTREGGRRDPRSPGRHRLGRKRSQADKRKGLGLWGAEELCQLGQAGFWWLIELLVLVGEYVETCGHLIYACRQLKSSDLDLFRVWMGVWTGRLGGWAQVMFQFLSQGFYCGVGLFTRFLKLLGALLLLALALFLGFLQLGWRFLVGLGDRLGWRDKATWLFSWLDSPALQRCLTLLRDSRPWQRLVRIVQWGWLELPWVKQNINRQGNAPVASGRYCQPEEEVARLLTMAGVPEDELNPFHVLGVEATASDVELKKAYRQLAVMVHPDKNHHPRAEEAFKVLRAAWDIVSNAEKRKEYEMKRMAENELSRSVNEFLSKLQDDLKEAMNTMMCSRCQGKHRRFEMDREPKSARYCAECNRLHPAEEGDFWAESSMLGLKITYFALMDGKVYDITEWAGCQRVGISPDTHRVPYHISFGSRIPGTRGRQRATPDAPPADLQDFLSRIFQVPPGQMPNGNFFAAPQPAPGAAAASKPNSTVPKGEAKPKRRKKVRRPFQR
UniProt P34896: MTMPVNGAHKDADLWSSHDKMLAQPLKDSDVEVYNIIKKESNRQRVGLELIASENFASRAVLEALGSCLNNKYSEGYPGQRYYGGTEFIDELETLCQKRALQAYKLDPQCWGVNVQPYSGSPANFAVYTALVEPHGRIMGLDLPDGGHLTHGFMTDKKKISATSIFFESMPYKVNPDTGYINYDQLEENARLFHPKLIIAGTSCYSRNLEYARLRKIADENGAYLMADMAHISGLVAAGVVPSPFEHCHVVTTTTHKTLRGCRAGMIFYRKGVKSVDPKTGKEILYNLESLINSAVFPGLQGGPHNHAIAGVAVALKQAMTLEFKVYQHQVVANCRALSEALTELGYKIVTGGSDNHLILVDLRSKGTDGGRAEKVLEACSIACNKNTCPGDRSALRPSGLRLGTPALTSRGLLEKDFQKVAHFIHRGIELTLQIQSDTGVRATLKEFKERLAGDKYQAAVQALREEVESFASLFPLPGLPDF
UniProt Q8NG11: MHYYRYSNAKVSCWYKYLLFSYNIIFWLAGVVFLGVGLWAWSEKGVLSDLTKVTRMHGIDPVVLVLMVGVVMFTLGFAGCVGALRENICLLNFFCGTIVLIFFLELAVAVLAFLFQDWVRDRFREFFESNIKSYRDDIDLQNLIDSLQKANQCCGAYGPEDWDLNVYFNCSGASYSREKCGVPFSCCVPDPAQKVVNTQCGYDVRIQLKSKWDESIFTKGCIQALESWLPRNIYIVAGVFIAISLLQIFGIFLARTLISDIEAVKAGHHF
UniProt O14957: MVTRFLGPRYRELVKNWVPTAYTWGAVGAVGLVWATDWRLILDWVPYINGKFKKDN
UniProt Q96EX1: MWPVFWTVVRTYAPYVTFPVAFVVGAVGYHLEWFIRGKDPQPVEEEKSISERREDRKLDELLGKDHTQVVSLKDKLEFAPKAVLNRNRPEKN
UniProt Q9UMY1: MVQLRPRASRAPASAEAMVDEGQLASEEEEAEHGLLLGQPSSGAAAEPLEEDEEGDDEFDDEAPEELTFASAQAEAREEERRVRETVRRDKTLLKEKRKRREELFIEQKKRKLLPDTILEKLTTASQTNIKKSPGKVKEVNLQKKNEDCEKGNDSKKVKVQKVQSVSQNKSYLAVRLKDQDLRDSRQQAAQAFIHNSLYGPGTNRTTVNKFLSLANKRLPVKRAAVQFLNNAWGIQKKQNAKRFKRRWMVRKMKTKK
UniProt O15446, whole entry: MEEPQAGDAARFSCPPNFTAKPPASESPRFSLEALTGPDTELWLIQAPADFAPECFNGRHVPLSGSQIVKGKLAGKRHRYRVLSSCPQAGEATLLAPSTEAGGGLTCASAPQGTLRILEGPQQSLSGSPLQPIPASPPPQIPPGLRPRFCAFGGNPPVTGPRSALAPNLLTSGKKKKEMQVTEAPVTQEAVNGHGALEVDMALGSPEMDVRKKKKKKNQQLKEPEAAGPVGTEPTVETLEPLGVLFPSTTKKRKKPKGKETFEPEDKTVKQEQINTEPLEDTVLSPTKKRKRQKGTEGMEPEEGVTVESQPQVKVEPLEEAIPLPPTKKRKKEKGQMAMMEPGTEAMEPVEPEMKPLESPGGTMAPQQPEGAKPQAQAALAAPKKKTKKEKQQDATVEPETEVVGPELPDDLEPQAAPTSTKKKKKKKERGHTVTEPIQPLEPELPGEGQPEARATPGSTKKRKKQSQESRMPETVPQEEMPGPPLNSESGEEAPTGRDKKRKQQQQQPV
UniProt Q96E29: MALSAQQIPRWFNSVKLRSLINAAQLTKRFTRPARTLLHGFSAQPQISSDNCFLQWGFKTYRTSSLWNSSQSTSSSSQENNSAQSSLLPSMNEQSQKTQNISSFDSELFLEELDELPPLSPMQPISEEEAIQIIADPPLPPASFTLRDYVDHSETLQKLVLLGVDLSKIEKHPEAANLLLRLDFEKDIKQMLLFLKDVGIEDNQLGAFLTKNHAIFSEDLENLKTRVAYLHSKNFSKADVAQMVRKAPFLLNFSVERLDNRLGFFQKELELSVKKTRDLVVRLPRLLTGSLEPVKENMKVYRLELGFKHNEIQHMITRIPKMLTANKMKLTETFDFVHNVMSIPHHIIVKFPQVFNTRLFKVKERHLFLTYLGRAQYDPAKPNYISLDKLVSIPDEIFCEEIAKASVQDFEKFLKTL
UniProt P09669, whole entry: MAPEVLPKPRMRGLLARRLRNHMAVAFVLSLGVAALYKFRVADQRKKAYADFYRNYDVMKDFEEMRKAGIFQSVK
UniProt Q9Y295: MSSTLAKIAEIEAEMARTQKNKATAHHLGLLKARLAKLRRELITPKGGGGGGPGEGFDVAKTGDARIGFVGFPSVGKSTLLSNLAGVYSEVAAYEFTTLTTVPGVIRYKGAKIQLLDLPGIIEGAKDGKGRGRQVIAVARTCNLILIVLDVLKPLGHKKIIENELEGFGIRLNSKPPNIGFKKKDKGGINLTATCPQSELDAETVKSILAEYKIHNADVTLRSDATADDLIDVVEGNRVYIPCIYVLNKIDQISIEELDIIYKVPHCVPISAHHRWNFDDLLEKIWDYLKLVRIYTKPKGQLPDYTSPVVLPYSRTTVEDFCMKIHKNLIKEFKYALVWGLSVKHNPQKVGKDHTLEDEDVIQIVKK
UniProt Q8N5K1: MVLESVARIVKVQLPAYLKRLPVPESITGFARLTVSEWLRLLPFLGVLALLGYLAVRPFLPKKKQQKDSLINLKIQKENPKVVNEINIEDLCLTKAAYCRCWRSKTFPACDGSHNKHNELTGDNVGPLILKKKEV
UniProt Q6VY07, whole entry, looked up: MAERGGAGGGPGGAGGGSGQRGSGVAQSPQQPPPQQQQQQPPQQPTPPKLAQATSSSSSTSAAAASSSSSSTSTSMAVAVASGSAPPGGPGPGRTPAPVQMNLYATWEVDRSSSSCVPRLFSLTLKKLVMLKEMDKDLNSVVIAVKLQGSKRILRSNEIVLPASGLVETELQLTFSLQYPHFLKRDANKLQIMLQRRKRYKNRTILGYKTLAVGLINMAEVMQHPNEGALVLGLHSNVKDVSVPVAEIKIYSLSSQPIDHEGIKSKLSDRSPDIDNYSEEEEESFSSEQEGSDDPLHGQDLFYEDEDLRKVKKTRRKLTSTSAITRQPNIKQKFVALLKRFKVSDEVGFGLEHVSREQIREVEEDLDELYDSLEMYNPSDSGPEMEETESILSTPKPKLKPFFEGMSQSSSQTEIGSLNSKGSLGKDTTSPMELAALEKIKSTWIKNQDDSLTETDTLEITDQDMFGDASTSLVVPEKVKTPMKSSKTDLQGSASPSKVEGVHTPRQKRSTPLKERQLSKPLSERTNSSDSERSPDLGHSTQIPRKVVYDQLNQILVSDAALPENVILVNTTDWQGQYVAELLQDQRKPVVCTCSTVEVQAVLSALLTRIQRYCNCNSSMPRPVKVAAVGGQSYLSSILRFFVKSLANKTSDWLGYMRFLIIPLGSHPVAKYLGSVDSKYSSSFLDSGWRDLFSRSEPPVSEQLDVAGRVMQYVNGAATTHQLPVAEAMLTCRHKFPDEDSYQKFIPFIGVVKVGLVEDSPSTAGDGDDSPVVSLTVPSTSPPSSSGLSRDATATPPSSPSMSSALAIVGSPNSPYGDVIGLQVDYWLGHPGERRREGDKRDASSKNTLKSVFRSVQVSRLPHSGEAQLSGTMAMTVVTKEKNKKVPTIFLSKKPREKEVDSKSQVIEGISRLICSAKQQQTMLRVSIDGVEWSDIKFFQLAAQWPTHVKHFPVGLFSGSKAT
UniProt Q9BQ04: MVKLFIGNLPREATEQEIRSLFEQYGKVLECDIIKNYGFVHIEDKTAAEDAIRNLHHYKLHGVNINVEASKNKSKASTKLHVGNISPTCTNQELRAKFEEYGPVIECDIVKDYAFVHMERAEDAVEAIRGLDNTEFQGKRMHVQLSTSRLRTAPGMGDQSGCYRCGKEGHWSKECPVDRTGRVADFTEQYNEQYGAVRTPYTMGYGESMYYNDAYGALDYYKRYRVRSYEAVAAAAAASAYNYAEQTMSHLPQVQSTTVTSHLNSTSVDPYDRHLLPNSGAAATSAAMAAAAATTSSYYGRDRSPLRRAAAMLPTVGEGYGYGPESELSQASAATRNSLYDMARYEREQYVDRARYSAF

Compound: [O-][N+](C(C1=C(C(O)=C2)NC(C(C=C3)=CC=C3Cl)C4C1C=CC4)=C2Cl)=O
Assay: melting temperature shift (compound 7 minus DMSO); higher = compound stabilises the protein
Settings: 10 µM
Method: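 Thermal proteome profiling (TMT mass spectrometry) in intact DAOY medulloblastoma cells or DAOY lysates treated with 10 µM compound 7 or DMSO, heated at 10 temperatures from 40.5 to 73.8 °C for 3 min. Melting curves were fitted with the Bioconductor TPP package, and the melting point difference between compound and vehicle is reported per protein (single curve per condition).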

[1] = system: DAOY cell lysate, treatment time: 20 min, 4 °C
[2] = system: intact DAOY cells, treatment time: 90 min, 37 °C

Target	melting temperature shift [1] [°C]	melting temperature shift [2] [°C]
TSTD2 (UniProt Q5T7W7)	-0.704	–
UniProt Q13164	–	1.48
ASMTL (UniProt O95671)	-1.47	–
COPS7B (UniProt Q9H9Q2)	-0.46	0.271
UniProt P23743	–	-0.939
PDXP (UniProt Q96GD0)	-3.92	-0.296
LMNA (UniProt P02545)	–	1.49
DSN1 (UniProt Q9H410)	-0.533	0.0488
SDHA (UniProt P31040)	1.91	0.29
NCKAP1 (UniProt Q9Y2A7)	-0.603	-0.0967
SERPINH1 (UniProt P50454)	0.581	0.513
GNG12 (UniProt Q9UBI6)	0.975	0.0193
TOMM20 (UniProt Q15388)	1.76	0.947
PDRG1 (UniProt Q9NUG6)	-0.645	-0.85
UniProt O75526	–	-0.829
KDM3B (UniProt Q7LBC6)	-1.31	0.0279
UniProt Q53F19	1.09	-0.507
UniProt Q59GN2	–	1.57
NIF3L1 (UniProt Q9GZT8)	-0.0392	3.38
GLTP (UniProt Q9NZD2)	-0.273	-0.162
UniProt Q9NZQ7	2.95	-0.325
UniProt Q5JNZ5	–	-0.698
ABHD14B (UniProt Q96IU4)	-0.618	0.434
DUS3L (UniProt Q96G46)	1.01	-0.749

Target	melting temperature shift [1] [°C]	melting temperature shift [2] [°C]
C12ORF29 (UniProt Q8N999)	-0.512	-0.0969
UBE2R2 (UniProt Q712K3)	-0.82	-0.859
ANAPC2 (UniProt Q9UJX6)	-0.185	–
INADL (UniProt Q8NI35)	–	-0.764
UniProt Q6Y2X3	–	2.05
LYSMD2 (UniProt Q8IV50)	–	-0.375
FLNB (UniProt O75369)	-0.359	-0.234
UniProt Q674X7	2.06	–
UniProt A6NIZ1	–	-1.29
SHMT1 (UniProt P34896)	-0.976	-0.403
UniProt Q8NG11	2.03	-2.84
ZPR1 (UniProt O75312)	-0.769	-0.146
UniProt O14957	1.61	–
ITSN1 (UniProt Q15811)	-0.425	0.922
UniProt Q96Q83	3.02	–
UBE2O (UniProt Q9C0C9)	-0.414	0.594
RBM3 (UniProt P98179)	0.593	–
UniProt Q5U3C3	1.35	-3.11
ATP6V0A1 (UniProt Q93050)	1.32	1.65
RPUSD2 (UniProt Q8IZ73)	-0.315	1.67
FPGT (UniProt O14772)	0.354	–
EIF3K (UniProt Q9UBQ5)	-0.275	0.681
ORC2 (UniProt Q13416)	1.22	-2.77
SMIM12 (UniProt Q96EX1)	3.03	-1.6

Target	melting temperature shift [1] [°C]	melting temperature shift [2] [°C]
BAZ1B (UniProt Q9UIG0)	0.652	-0.436
NOL7 (UniProt Q9UMY1)	1.19	-0.025
ACO2 (UniProt Q99798)	0.435	-0.368
TOMM40 (UniProt O96008)	3.83	–
PARL (UniProt Q9H300)	1.49	-0.13
C9ORF40 (UniProt Q8IXQ3)	2.97	–
KDELC1 (UniProt Q6UW63)	-0.245	0.244
UBR2 (UniProt Q8IWV8)	-1.42	1.2
UniProt Q7L0J3	3.1	0.757
TFRC (UniProt P02786)	2.06	-0.0613
WDR92 (UniProt Q96MX6)	0.303	-1.05
UniProt P08590	–	-0.0458
SURF4 (UniProt O15260)	1.63	-1.34
HSPH1 (UniProt Q92598)	-0.288	0.436
CD3EAP (UniProt O15446)	1.63	–
IFT74 (UniProt Q96LB3)	1.61	–
UniProt Q5T200	0.76	-0.0122
CIAPIN1 (UniProt Q6FI81)	-0.245	-0.00589
ERCC4 (UniProt Q92889)	1.97	-0.109
MTERF3 (UniProt Q96E29)	–	1.59
GXYLT1 (UniProt Q4G148)	-0.221	–
RIOK3 (UniProt O14730)	–	-1.35
MCM3 (UniProt P25205)	-0.484	-1.06
CBX8 (UniProt Q9HC52)	2.42	–

Reformatted bar-delimited: part of the list above
Target | melting temperature shift [1] [°C] | melting temperature shift [2] [°C]
RBM3 (UniProt P98179) | 0.593 | –
UniProt Q5U3C3 | 1.35 | -3.11
ATP6V0A1 (UniProt Q93050) | 1.32 | 1.65
RPUSD2 (UniProt Q8IZ73) | -0.315 | 1.67
FPGT (UniProt O14772) | 0.354 | –
EIF3K (UniProt Q9UBQ5) | -0.275 | 0.681
ORC2 (UniProt Q13416) | 1.22 | -2.77
SMIM12 (UniProt Q96EX1) | 3.03 | -1.6
BAZ1B (UniProt Q9UIG0) | 0.652 | -0.436
NOL7 (UniProt Q9UMY1) | 1.19 | -0.025
ACO2 (UniProt Q99798) | 0.435 | -0.368
TOMM40 (UniProt O96008) | 3.83 | –
PARL (UniProt Q9H300) | 1.49 | -0.13
C9ORF40 (UniProt Q8IXQ3) | 2.97 | –
KDELC1 (UniProt Q6UW63) | -0.245 | 0.244
UBR2 (UniProt Q8IWV8) | -1.42 | 1.2
UniProt Q7L0J3 | 3.1 | 0.757
TFRC (UniProt P02786) | 2.06 | -0.0613
WDR92 (UniProt Q96MX6) | 0.303 | -1.05
UniProt P08590 | – | -0.0458
SURF4 (UniProt O15260) | 1.63 | -1.34
HSPH1 (UniProt Q92598) | -0.288 | 0.436
CD3EAP (UniProt O15446) | 1.63 | –
IFT74 (UniProt Q96LB3) | 1.61 | –
UniProt Q5T200 | 0.76 | -0.0122
CIAPIN1 (UniProt Q6FI81) | -0.245 | -0.00589
ERCC4 (UniProt Q92889) | 1.97 | -0.109
MTERF3 (UniProt Q96E29) | – | 1.59
GXYLT1 (UniProt Q4G148) | -0.221 | –
RIOK3 (UniProt O14730) | – | -1.35
MCM3 (UniProt P25205) | -0.484 | -1.06

The listing continues:

Target	melting temperature shift [1] [°C]	melting temperature shift [2] [°C]
RPS4X (UniProt P62701)	0.371	-0.758
EAPP (UniProt Q56P03)	-0.172	-0.793
XPNPEP1 (UniProt Q9NQW7)	-0.148	1.04
COX6C (UniProt P09669)	2.94	–
TRAPPC9 (UniProt Q96Q05)	0.0171	0.54
DHX30 (UniProt Q7L2E3)	-0.426	0.48
TATDN1 (UniProt Q6P1N9)	-0.556	-0.162
UniProt Q15049	–	-0.641
UniProt Q9BXX2	–	-0.753
UniProt Q9UJV3	–	0.0732
DRG1 (UniProt Q9Y295)	-0.26	-0.203
COTL1 (UniProt Q14019)	-2.23	-0.326
CISD2 (UniProt Q8N5K1)	3.55	–
LSG1 (UniProt Q9H089)	0.277	2.51
UniProt Q9P0U1	1.53	-0.71
SLC2A3 (UniProt P11169)	2.32	–
UniProt Q9H1K4	–	-0.824
UniProt Q96G21	-0.345	–
POLD3 (UniProt Q15054)	-0.0315	-0.779
OCIAD2 (UniProt Q56VL3)	1.99	0.0232
PACS1 (UniProt Q6VY07)	-0.787	0.687
ITPA (UniProt Q9BY32)	-0.708	-0.548
UniProt P42898	0.587	-2.07
GPD1L (UniProt Q8N335)	-0.205	1.42

Target	melting temperature shift [1] [°C]	melting temperature shift [2] [°C]
RSL1D1 (UniProt O76021)	0.807	-0.33
UniProt Q9BQ04	–	0.604
EXOSC1 (UniProt Q9Y3B2)	-0.505	0.378
NAA50 (UniProt Q9GZZ1)	-0.345	-0.588
TKT (UniProt P29401)	-0.34	-0.43
CDK5RAP3 (UniProt Q96JB5)	0.579	-0.81
HERC1 (UniProt Q15751)	0.13	-0.232
UniProt P30536	0.38	1.67
UniProt Q9H649	-2.55	–
UniProt Q9NZU5	-0.0503	0.58
VLDLR (UniProt P98155)	-1.13	–
MRPL33 (UniProt O75394)	3.66	-2.3
RBM14 (UniProt Q96PK6)	0.21	-1.11
PRCC (UniProt Q92733)	-0.495	–
CHKA (UniProt P35790)	0.178	-2.33
EMC10 (UniProt Q5UCC4)	0.231	0.524
RAB3GAP1 (UniProt Q15042)	-0.593	-0.296
UniProt Q9UJQ1	–	0.322
ATP6V1D (UniProt Q9Y5K8)	-1.42	1.91
MPG (UniProt P29372)	-1.54	–
